Results: US10961180B2, “Branched trialkyl amine oxides” (Eastman Chemical Company, priority 2018, dated 2021)

What was measured:
[1] = Stain removal in cold water, swatch brightness, simple laundry liquid; conditions: 12% LAE7 base formulation diluted to 0.06% surfactant; additives 0.05% active in wash solution; 20° C; 3 replicates
[2] = as above; conditions: 12% LAE7 base formulation diluted to 0.06% surfactant; additives 0.05% active in wash solution; 20° C; 3 replicates; remark: listed apart in the source
[3] = Standard Pre-Treater formula on lipstick stain; conditions: 6% surfactant in Standard PT formula, 0.2 ml, 5 min, then cold wash (20 C) in diluted Tide

CCCCCCCCCCCC[N+](C)(C)[O-] [LAO, N,N-dimethyl laurylamine oxide, reference compound]
Stain removal estimated by brightness, avg L* [1]: 74.8
Stain removal estimated by brightness, avg L* [2]: 72.8

CCCCC(CC)CC(C)C[N+](C)(C)[O-] (centres unmarked) [Example 43, 4-ethyl-N,N-2-trimethyloctan-1-amine oxide]
Stain removal estimated by brightness, avg L* [1]: 76.3
Stain removal estimated by brightness, avg L* [2]: 72.7

Linear alkylbenzene sulfonate [LABS]
L* [3]: 78.4
deltaE [3]: 19.4

Alkylpolyglucoside [APG]
L* [3]: 78.0
deltaE [3]: 18.9
